Reference: US20060257938A1, “Method of screening for drugs that block ligand binding to a lipid binding protein” (priority 2005, published 2006)
Changes are numbered by the printed parent chain.

B1: 38M 104S 115A 74F 72A (protein, listed as Rattus norvegicus)
chain: AFDGTWKVDRNENYEKFMEKMGINVVKRKLGAHDNLKMTITQEGNKFTVKESSNFRNIDVVFELGVDFAYSAAFGTELTGTWTMEGNKLVGKFKRVDNGKELISVREISGNELIATYTYEGVEAKRIFKKE
modifications: PEPTIDE (1)...(131) wild-type rat intestinal fatty acid binding protein
B2: 38Q 62I 106I 117A 72A (protein, listed as Rattus norvegicus)
chain: B1 chain with M38Q, F62I, F74D, S104A, R106I, A115Q, Y117A
modifications: PEPTIDE (1)...(131) wild-type rat intestinal fatty acid binding protein
B3: 62Y, 72A (protein, listed as Rattus norvegicus)
chain: B1 chain with M38L, F62Y, F74D, S104A, A115Q
modifications: PEPTIDE (1)...(131) wild-type rat intestinal fatty acid binding protein
B4: 38Y 72G 117M (protein, listed as Rattus norvegicus)
chain: B1 chain with M38Y, A72G, F74D, S104A, A115Q, Y117M
modifications: PEPTIDE (1)...(131) wild-type rat intestinal fatty acid binding protein
B5: 38A 106V 117A 72A (protein, listed as Rattus norvegicus)
chain: B1 chain with M38A, F74D, S104A, R106V, A115Q, Y117A
modifications: PEPTIDE (1)...(131) wild-type rat intestinal fatty acid binding protein
B6: 104T 115A 74F 72A (protein, listed as Rattus norvegicus)
chain: B1 chain with M38L, S104T
modifications: PEPTIDE (1)...(131) wild-type rat intestinal fatty acid binding protein
B7: 18I 31Y 73I 72A (protein, listed as Rattus norvegicus)
chain: B1 chain with M18I, G31Y, M38L, A73I, F74D, S104A, A115Q
modifications: PEPTIDE (1)...(131) wild-type rat intestinal fatty acid binding protein
B8: 18L 73F 117G 72A (protein, listed as Rattus norvegicus)
chain: B1 chain with M18L, M38L, A73F, F74D, S104A, A115Q, Y117G
modifications: PEPTIDE (1)...(131) wild-type rat intestinal fatty acid binding protein
B9: 18V 31Y 73V 72A (protein, listed as Rattus norvegicus)
chain: B1 chain with M18V, G31Y, M38L, A73V, F74D, S104A, A115Q
modifications: PEPTIDE (1)...(131) wild-type rat intestinal fatty acid binding protein
B10: 18V 31I 55L 73V 72A (protein, listed as Rattus norvegicus)
chain: B1 chain with M18V, G31I, M38L, F55L, A73V, F74D, S104A, A115Q
modifications: PEPTIDE (1)...(131) wild-type rat intestinal fatty acid binding protein
B11: 14A 18Y 31W 73G 117V 72A (protein, listed as Rattus norvegicus)
chain: B1 chain with Y14A, M18Y, G31W, M38L, A73G, F74D, S104A, A115Q, Y117V
modifications: PEPTIDE (1)...(131) wild-type rat intestinal fatty acid binding protein
B12: 31R, 72A (protein, listed as Rattus norvegicus)
chain: B1 chain with G31R, M38L, F74D, S104A, A115Q
modifications: PEPTIDE (1)...(131) wild-type rat intestinal fatty acid binding protein
B13: 31E, 72A (protein, listed as Rattus norvegicus)
chain: B1 chain with G31E, M38L, F74D, S104A, A115Q
modifications: PEPTIDE (1)...(131) wild-type rat intestinal fatty acid binding protein
B14: 31T, 72A (protein, listed as Rattus norvegicus)
chain: B1 chain with G31T, M38L, F74D, S104A, A115Q
modifications: PEPTIDE (1)...(131) wild-type rat intestinal fatty acid binding protein
B15: 18V 31Y 73I 72A (protein, listed as Rattus norvegicus)
chain: B1 chain with M18V, G31Y, M38L, A73I, F74D, S104A, A115Q
modifications: PEPTIDE (1)...(131) wild-type rat intestinal fatty acid binding protein
B16: 78F 102I 72A (protein, listed as Rattus norvegicus)
chain: B1 chain with M38L, F74D, L78F, L102I, S104A, A115Q
modifications: PEPTIDE (1)...(131) wild-type rat intestinal fatty acid binding protein
B17: 38W, 72A (protein, listed as Rattus norvegicus)
chain: B1 chain with M38W, F74D, S104A, A115Q
modifications: PEPTIDE (1)...(131) wild-type rat intestinal fatty acid binding protein
B18: 62W, 72A (protein, listed as Rattus norvegicus)
chain: B1 chain with M38L, F62W, F74D, S104A, A115Q
modifications: PEPTIDE (1)...(131) wild-type rat intestinal fatty acid binding protein
B19: 14I 18L 31W 73V 117G 72A (protein, listed as Rattus norvegicus)
chain: B1 chain with Y14I, M18L, G31W, M38L, A73V, F74D, S104A, A115Q, Y117G
modifications: PEPTIDE (1)...(131) wild-type rat intestinal fatty acid binding protein
B20: 49I, 72A (protein, listed as Rattus norvegicus)
chain: B1 chain with M38L, V49I, F74D, S104A, A115Q
modifications: PEPTIDE (1)...(131) wild-type rat intestinal fatty acid binding protein
B21: 70Q, 72A (protein, listed as Rattus norvegicus)
chain: B1 chain with M38L, Y70Q, F74D, S104A, A115Q
modifications: PEPTIDE (1)...(131) wild-type rat intestinal fatty acid binding protein
B22: 14L 18L 31W 73W 117L 72A (protein, listed as Rattus norvegicus)
chain: B1 chain with Y14L, M18L, G31W, M38L, A73W, F74D, S104A, A115Q, Y117L
modifications: PEPTIDE (1)...(131) wild-type rat intestinal fatty acid binding protein
B23: 31F, 72A (protein, listed as Rattus norvegicus)
chain: B1 chain with G31F, M38L, F74D, S104A, A115Q
modifications: PEPTIDE (1)...(131) wild-type rat intestinal fatty acid binding protein
B24: 23V, 72A (protein, listed as Rattus norvegicus)
chain: B1 chain with I23V, M38L, F74D, S104A, A115Q
modifications: PEPTIDE (1)...(131) wild-type rat intestinal fatty acid binding protein
B25: 11Q, 72A (protein, listed as Rattus norvegicus)
chain: B1 chain with N11Q, M38L, F74D, S104A, A115Q
modifications: PEPTIDE (1)...(131) wild-type rat intestinal fatty acid binding protein
B26: 104S, 72A (protein, listed as Rattus norvegicus)
chain: B1 chain with M38L, F74D, A115Q
modifications: PEPTIDE (1)...(131) wild-type rat intestinal fatty acid binding protein
B27: 73Y, 72A (protein, listed as Rattus norvegicus)
chain: B1 chain with M38L, A73Y, F74D, S104A, A115Q
modifications: PEPTIDE (1)...(131) wild-type rat intestinal fatty acid binding protein
B28: 14I 18V 31W 73I 117V 72A (protein, listed as Rattus norvegicus)
chain: B1 chain with Y14I, M18V, G31W, M38L, A73I, F74D, S104A, A115Q, Y117V
modifications: PEPTIDE (1)...(131) wild-type rat intestinal fatty acid binding protein
B29: 18L, 72A (protein, listed as Rattus norvegicus)
chain: B1 chain with M18L, M38L, F74D, S104A, A115Q
modifications: PEPTIDE (1)...(131) wild-type rat intestinal fatty acid binding protein
B30: 21D, 72A (protein, listed as Rattus norvegicus)
chain: B1 chain with M21D, M38L, F74D, S104A, A115Q
modifications: PEPTIDE (1)...(131) wild-type rat intestinal fatty acid binding protein
B31: 49M, 72A (protein, listed as Rattus norvegicus)
chain: B1 chain with M38L, V49M, F74D, S104A, A115Q
modifications: PEPTIDE (1)...(131) wild-type rat intestinal fatty acid binding protein
B32: 31W, 72A (protein, listed as Rattus norvegicus)
chain: B1 chain with G31W, M38L, F74D, S104A, A115Q
modifications: PEPTIDE (1)...(131) wild-type rat intestinal fatty acid binding protein
B33: 119L, 72A (protein, listed as Rattus norvegicus)
chain: B1 chain with M38L, F74D, S104A, A115Q, Y119L
modifications: PEPTIDE (1)...(131) wild-type rat intestinal fatty acid binding protein
B34: 14L 38I 72A (protein, listed as Rattus norvegicus)
chain: B1 chain with Y14L, M38I, F74D, S104A, A115Q
modifications: PEPTIDE (1)...(131) wild-type rat intestinal fatty acid binding protein

assay: Baseline fluorescence ratio Ro of probe in absence of analyte; conditions: baseline fluorescence ratio of probe

With B1 as the molecule, how does the Ro read?
The Ro was 0.325.

With B2 as the molecule, how does the Ro read?
Its Ro is 0.215.

Which Ro does the source give for B3 here?
Its Ro is 0.238.

For B4, which Ro is on record?
Its Ro is 0.204.

Which Ro does the source give for B5 here?
Its Ro is 0.418.

same assay, conditions: baseline fluorescence ratio of probe, no fatty acid

Which Ro does the source give for B6 here?
The Ro was 0.287.

With B7 as the molecule, how does the Ro read?
The Ro was 0.340.

For B8, which Ro is on record?
The Ro was 0.400.

For B1, which Ro is on record?
The Ro was 0.325.

For B9, which Ro is on record?
The Ro was 0.343.

Which Ro does the source give for B10 here?
Its Ro is 0.316.

With B11 as the molecule, how does the Ro read?
Its Ro is 0.261.

For B12, which Ro is on record?
Its Ro is 0.182.

Which Ro does the source give for B13 here?
The Ro was 0.308.

For B14, which Ro is on record?
Its Ro is 0.389.

Which Ro does the source give for B15 here?
Its Ro is 0.359.

For B16, which Ro is on record?
Its Ro is 0.297.

With B2 as the molecule, how does the Ro read?
The Ro was 0.215.

For B17, which Ro is on record?
The Ro was 0.231.

With B18 as the molecule, how does the Ro read?
Its Ro is 0.211.

For B19, which Ro is on record?
The Ro was 0.470.

For B20, which Ro is on record?
Its Ro is 0.362.

Which Ro does the source give for B21 here?
The Ro was 0.307.

Which Ro does the source give for B22 here?
The Ro was 0.201.

Which Ro does the source give for B23 here?
Its Ro is 0.492.

Which Ro does the source give for B24 here?
Its Ro is 0.167.

For B25, which Ro is on record?
Its Ro is 0.262.

With B26 as the molecule, how does the Ro read?
The Ro was 0.242.

With B27 as the molecule, how does the Ro read?
Its Ro is 0.282.

Which Ro does the source give for B28 here?
Its Ro is 0.287.

For B29, which Ro is on record?
The Ro was 0.265.

With B30 as the molecule, how does the Ro read?
Its Ro is 0.359.

Which Ro does the source give for B31 here?
The Ro was 0.347.

With B5 as the molecule, how does the Ro read?
The Ro was 0.418.

With B32 as the molecule, how does the Ro read?
The Ro was 0.462.

Which Ro does the source give for B33 here?
The Ro was 0.349.

For B34, which Ro is on record?
The Ro was 0.267.
